The record followed here is patent publication US20250011418A1 (ZIELBIO, published 2025).

The target in experiment [1] is Reb-His (Reb, a sub-fragment of Sec8, tagged with a polyhistidine (His) tag). The experiment is described as follows: ELISA on Reb-His. (In general: In an ELISA, binding on a coated surface is turned into a signal by an enzyme label.)
The target in experiment [2] is Sec8-His (section 8 (Sec8), an antigenic region of CSP-1, tagged with a polyhistidine (His) tag). The experiment is described as follows: ELISA on Sec8-His.
In experiment [3] the target is Reb-His (Reb, a sub-fragment of Sec8, tagged with a polyhistidine (His) tag). The experiment is described as follows: ELISA on REB-HIS, absorbance 650 nm against concentration in nM on a log axis.
For experiment [4], the target named is Sec8-His (section 8 (Sec8), an antigenic region of CSP-1, tagged with a polyhistidine (His) tag). The experiment is described as follows: ELISA on Sec8-His (target per paragraph 36), absorbance 650 nm against concentration in nM on a log axis.
Experiment [5] has the same target. The experiment is described as follows: BLI (Octet), single shot: antibody on anti-human IgG tips, 24 nM Sec8-His. A general note: In BLI a coated tip is dipped into the sample, and binding shifts an interference pattern.

No constants are given. Whether binding was seen depends on the method and setting. Some entries that bind do so weakly or less than the wild type.

B1: murine anti-CSP-1 antibody 1H11 (antibody, V domains shown)
VH: QIQLVQSGPELKKPGETVKISCKASGYTFTDYSMHWVKQAPGKGLKWMGWINTETGEPTYADDFKGRFAFSLETSASTAYLQINNLKNEDTATYFCAPGGFAYWGQGTLVTVSA
VL: DIVMTQAAPSVPVTPGESVSISCRSSKSLLHSNGNTYLYWFLQRPGQSPQLLIYRMSNLASGVPDRFSGSGSGTAFTLRISRVEAEDVGVYYCMQHLEYPLTFGAGTKLELKR
notes: Murine antibody; also called 1H11B5
Regarding B1, the binding entry in experiment [1], in experiment [2], in experiment [3] and in experiment [4] was “binds” in each case.

B2: humanized anti-CSP-1 antibody, Antibody Number 42 (Table 1) (antibody, human IgG1, V domains shown)
VH: QIQLVQSGSELKKPGASVKVSCKASGYTFTDYSMHWVRQAPGQGLEWMGWINTETGEPTYAQGFTGRFVFSLDTSVSTAYLQISSLKAEDTAVYFCAPGGFAYWGQGTLVTVSS
VL: DIVMTQSPLSLPVTPGEPASISCRSSKSLLHSNGNTYLYWFLQKPGQSPQLLIYRMSNLASGVPDRFSGSGSGTDFTLKISRVEAEDVGVYYCMQHLEYPLTFGAGTKLELK
notes: also called Antibody 42
On to B2, for which the binding entry in experiment [5] is “binds”.
